From paper PMC7335091, “Mechanistic insights into chromatin targeting by leukemic NUP98-PHF23 fusion” (Nature Communications, 2020)

Biological target: T1, PHF23 PHD finger (PHF23PHD) (Homo sapiens, UniProt Q9BUL5)
T1 sequence (Q9BUL5 338-393): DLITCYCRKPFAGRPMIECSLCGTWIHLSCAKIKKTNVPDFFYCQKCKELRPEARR

SMILES: CCCCc1oc2ccccc2c1C(=O)c1cc(I)c(OCCN(CC)CC)c(I)c1 [AD, amiodarone]
- 1H,15N HSQC NMR titration: Gradual addition of AD or DS to PHF23PHD induced small but significant CSPs in the protein, indicative of direct interactions
